Experimental data published in KR20190108308A.
Changes are numbered by the printed parent chain. Results are given in words; binding and its absence hold for the method and conditions named. Some entries that bind do so weakly or less than the wild type.

Chains of the proteins cited; added tags and fusions are not shown. Lines headed by an entry give the natural chain unless they say otherwise; changes in a name come on top.
UniProt P06756: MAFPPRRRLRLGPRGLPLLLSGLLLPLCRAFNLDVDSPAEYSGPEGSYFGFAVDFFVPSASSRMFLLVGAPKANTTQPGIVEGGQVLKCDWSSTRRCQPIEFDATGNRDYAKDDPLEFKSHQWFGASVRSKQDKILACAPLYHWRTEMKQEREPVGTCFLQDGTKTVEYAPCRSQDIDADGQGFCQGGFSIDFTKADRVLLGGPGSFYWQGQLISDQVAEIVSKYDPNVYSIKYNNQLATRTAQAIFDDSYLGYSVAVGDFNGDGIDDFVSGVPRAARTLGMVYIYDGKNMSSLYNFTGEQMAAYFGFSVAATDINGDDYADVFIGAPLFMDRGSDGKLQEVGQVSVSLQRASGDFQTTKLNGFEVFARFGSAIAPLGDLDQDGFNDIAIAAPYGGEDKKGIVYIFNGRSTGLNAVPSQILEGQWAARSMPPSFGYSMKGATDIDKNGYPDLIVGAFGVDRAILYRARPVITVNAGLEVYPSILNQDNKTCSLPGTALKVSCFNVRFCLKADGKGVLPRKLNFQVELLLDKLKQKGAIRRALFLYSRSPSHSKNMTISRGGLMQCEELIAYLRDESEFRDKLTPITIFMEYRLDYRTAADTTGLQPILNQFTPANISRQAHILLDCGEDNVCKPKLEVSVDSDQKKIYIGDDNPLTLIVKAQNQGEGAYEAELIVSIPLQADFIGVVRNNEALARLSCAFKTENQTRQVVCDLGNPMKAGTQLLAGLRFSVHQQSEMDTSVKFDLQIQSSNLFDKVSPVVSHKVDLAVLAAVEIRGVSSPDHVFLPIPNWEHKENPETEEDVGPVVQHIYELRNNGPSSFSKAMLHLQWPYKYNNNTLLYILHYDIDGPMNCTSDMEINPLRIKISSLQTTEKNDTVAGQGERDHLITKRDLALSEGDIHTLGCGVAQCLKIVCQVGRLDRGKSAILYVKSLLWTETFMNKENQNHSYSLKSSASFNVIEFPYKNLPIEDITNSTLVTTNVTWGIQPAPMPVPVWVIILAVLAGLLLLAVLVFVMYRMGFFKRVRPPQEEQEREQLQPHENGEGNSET
UniProt P05106: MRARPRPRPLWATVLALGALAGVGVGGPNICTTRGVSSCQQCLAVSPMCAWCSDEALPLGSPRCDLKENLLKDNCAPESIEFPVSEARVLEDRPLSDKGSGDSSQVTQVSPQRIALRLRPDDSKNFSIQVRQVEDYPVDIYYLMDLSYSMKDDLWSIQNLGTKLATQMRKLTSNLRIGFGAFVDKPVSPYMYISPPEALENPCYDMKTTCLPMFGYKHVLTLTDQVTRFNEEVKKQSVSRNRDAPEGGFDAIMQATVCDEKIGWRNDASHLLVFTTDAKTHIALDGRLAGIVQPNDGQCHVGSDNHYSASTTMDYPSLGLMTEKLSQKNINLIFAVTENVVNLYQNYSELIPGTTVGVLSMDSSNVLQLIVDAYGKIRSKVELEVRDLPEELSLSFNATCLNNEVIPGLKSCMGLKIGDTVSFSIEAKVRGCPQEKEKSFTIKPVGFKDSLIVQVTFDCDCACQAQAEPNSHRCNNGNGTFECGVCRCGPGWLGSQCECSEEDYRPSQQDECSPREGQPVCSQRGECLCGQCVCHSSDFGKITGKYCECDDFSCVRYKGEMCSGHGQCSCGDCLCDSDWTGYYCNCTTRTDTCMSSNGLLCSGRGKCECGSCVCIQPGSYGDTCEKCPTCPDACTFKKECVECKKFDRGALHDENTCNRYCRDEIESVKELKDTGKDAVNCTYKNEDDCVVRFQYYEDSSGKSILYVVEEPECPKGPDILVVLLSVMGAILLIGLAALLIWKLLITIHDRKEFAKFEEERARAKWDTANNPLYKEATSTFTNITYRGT

B1: 단일 도메인 항체 VHH-25 (VHH)
VHH: EVQLVESGGGSVQAGGSLRLSCVVSGYTCSVYDMIWYRQPPGKEREFVSLINSNGRTTYADSVKGRFTISQNNAKNTVYLQMNSLKPEDTAMYYCHAACYSPSRLNYWGQGTQVTVSS
B2: 단일 도메인 항체 VHH-13 (VHH)
VHH: HVQLVESGGGSVQPGESLRLSCVASGYTVSSSCMAWFRQAPGKEREVVATIVVTSDTTSTFYADSVKGRFTISPDNAKNTLNLQMNSLEPSDTAMYYCAADRKWNVCSRGYRYTPNWANQFTFWGQGTQVTVSS
B3: 단일 도메인 항체 VHH-22 (VHH)
VHH: B1 VHH with E1Q, Q113L

molecular target: T1, 인간 αvβ3 인테그린 ITGAVB3 (recombinant human αvβ3 integrin) (human) (UniProt P06756+P05106); test: ELISA by the method of Example 5, ten VHH clones compared

Binder	binding
B1	binds
B2	binds
B3	binds

molecular target: T1, 인간 αvβ3 인테그린 ITGAVB3 (recombinant human αvβ3 integrin) (human); test: phage ELISA, coated target, HRP anti-M13

Binder	binding
B1	binds
B2	binds
B3	binds

molecular target: T1, 인간 αvβ3 인테그린 ITGAVB3 (recombinant human αvβ3 integrin) (human); test: SPR (Reichert SR7500DC), αvβ3 integrin immobilised on CMDH chip

Binder	binding
B1	binds
B2	binds
B3	binds
